According to PubChem BioAssay AID2685 (National Center for Advancing Translational Sciences (NCATS), 2010):
The list shows a part of the results. The main result of the screen is listed elsewhere. These columns were measured beside it and carry no call. The list favours compounds with an active or inconclusive main result. Words in brackets tell the shape of the fitted curve; partial curves, single points and poor fits give uncertain potencies. Where a SMILES comes first, the peptide text is derived from it. The star is where a group is joined. Tos = Cc1ccc(S(=O)(=O)*)cc1

Test: qHTS Assay for Lipid Storage Modulators in Drosophila S3 Cells;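 on cell number change: cells counted by Cell Tracker Red CMTPX staining in the red channel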
Details: BODIPY lipid droplet fluorescence, 18-24 h; for cell number change: measured here: cell count max response, cells fed with added oleic acid
Outline: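 Drosophila S3 cells got compounds at several concentrations plus oleic acid (400 uM solution). Laser-scanning cytometry with 488 nm excitation read lipid droplets at 500-530 nm and cells at 575-640 nm. Percent activity was relative to 20 uM Triacsin C.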

[1] = measured here: lipid fluorescence (Fed channel) AC50, cells fed with added oleic acid
[2] = measured here: cell number channel AC50, cells fed with added oleic acid

Row | SMILES | cell number change | AC50 [1] | AC50 [2]
1 | CCc1nc2ccc(C(=O)N3CCN(c4ccc([N+](=O)[O-])cc4)CC3)cc2nc1CC | 18.2% | 6.51 µM [rising, single point] | –
2 | OC(C#CCN1CCOCC1)(c1ccccc1)C1CCCCC1 (stereo unspecified) | -22.7% | – | –
3 | CN1CCN(Cc2nc3ccccc3c(=O)n2Cc2nc(-c3ccc([N+](=O)[O-])cc3)cs2)CC1 | -49.8% | – | 18.4 µM [falling, partial curve, poor fit]
4 | CC1=C(C(=O)N2CCOCC2)C(c2ccc(-c3ccccc3)cc2)NC(=S)N1 (stereo unspecified) | -32.2% | 6.51 µM [falling, single point] | 7.31 µM [falling, partial curve]
5 | CC1CCC2C(=O)N(c3cc(Cl)ccc3OC(=O)c3ccco3)C(=O)C2C1 (stereo unspecified) | 5.24% | 13 µM [falling, partial curve] | –
6 | O=C(C1CCC(=O)N(C2CC2)C1)N1CCC(Oc2cccc(F)c2)CC1 (stereo unspecified) | -9.41% | 29.1 µM [rising, single point] | –
7 | CCCn1c(C)cc(=O)c2cc(NC(=O)c3cnccn3)ccc21 | 31.6% | 1.16 µM [rising, full curve] | 4.11 µM [rising, full curve]
8 | NC(=O)C1Cc2ccccc2CN1S(=O)(=O)c1ccc(Cl)s1 (stereo unspecified) | 21% | 0.206 µM [rising, single point] | –
9 | Cc1ccc(CC(=O)NCCS(=O)c2ccc(Cl)cc2)cc1 (stereo unspecified) | -21.6% | – | –
10 | CCC(C(=O)NC(C)CCc1ccccc1)n1nc(C)n2c(cc3occc32)c1=O (stereo unspecified) | -19.9% | 0.291 µM [rising, partial curve] | –
11 | COC(=O)c1ccc2c(c1)C(C)(C)C(/C=C/c1ccc(OC)c(OC)c1OC)=[N+]2C | -42.8% | 18.4 µM [falling, single point] | 18.4 µM [falling, single point]
12 | COc1cc(NC(=O)c2cccs2)c(OC)cc1NC(=O)Cc1ccccc1 | 22.6% | 29.1 µM [falling, single point] | –
13 | COc1ccc(OC)c(CN2CCN(C(=O)c3cc(S(=O)(=O)Nc4ccccc4OC)ccc3C)CC2)c1 | -28.5% | – | –
14 | COc1cc2c(cc1OC)C1=NC(=O)CN1C(SCc1ccccc1)=N2 | -6.41% | – | –
15 | CCCCCN(C(=O)CCC(=O)OCCOc1ccccc1Cl)c1c(N)n(CCCC)c(=O)[nH]c1=O | 16.9% | 5.8 µM [rising, single point] | –
16 | NC(=O)C1CCN(CCC(=O)Nc2ccc(Br)cc2)CC1 | -20.8% | 0.731 µM [falling, full curve, poor fit] | 6.51 µM [falling, single point]
17 | Cc1cccc(-c2nn(-c3ccccc3)cc2C(=O)Nc2cccc(S(=O)(=O)NC3=NCCC3)c2)c1 | 6.43% | – | –
18 | COc1ccccc1NC1=NC2(CCCC2)N=C(N)N1 | -111% | – | 20.6 µM [falling, partial curve]
19 | Cc1c(NC(=O)COC(=O)/C=C/c2ccc(Cl)cc2)c(=O)n(-c2ccccc2)n1C | 57.9% | – | 23.1 µM [rising, single point]

Single records (already shown):
Cc1c(NC(=O)COC(=O)/C=C/c2ccc(Cl)cc2)c(=O)n(-c2ccccc2)n1C is listed as cell number change: 57.9%; AC50 [2]: 23.1 µM [rising, single point]
NC(=O)C1Cc2ccccc2CN1S(=O)(=O)c1ccc(Cl)s1 (stereo unspecified) is listed as cell number change: 21%; AC50 [1]: 0.206 µM [rising, single point]
COc1ccc(OC)c(CN2CCN(C(=O)c3cc(S(=O)(=O)Nc4ccccc4OC)ccc3C)CC2)c1 is listed as cell number change: -28.5%

Next part

Row | SMILES | cell number change | AC50 [1] | AC50 [2]
20 | CC1(C(=O)Nc2cccc(C(F)(F)F)c2)CO1 (stereo unspecified) | -57.2% | – | 29.1 µM [falling, single point]
21 | Cc1ccc(O)c(N=Cc2sc3ccccc3c2Cl)c1 | – | 6.51 µM [rising, partial curve] | 6.51 µM [rising, partial curve, poor fit]
22 | COc1ccc2nc(NC(=O)Cc3ccc(OC)c(S(=O)(=O)N4CCOCC4)c3)sc2c1 | -16% | 16.4 µM [falling, single point] | –
23 | Cn1nccc1C(=O)N/N=C/c1cccnc1 | -23.2% | 0.411 µM [falling, full curve] | 0.291 µM [falling, full curve]
24 | Cc1c(C(=O)N/N=C/c2cccnc2)sc(=S)n1C | 10.9% | 9.2 µM [rising, single point] | –
25 | CCSc1nn2c(=O)c3ccccc3nc2s1 | 1.63% | 1.84 µM [falling, partial curve, poor fit] | –
26 | COc1ccc(N(CC(=O)NC(C)(C)C)C(=O)CCC(=O)Nc2nccs2)cc1 | 5.7% | 0.731 µM [rising, single point] | –
27 | O=C(NCCCN1CCOCC1)C1CCN(S(=O)(=O)c2cccc(C(F)(F)F)c2)CC1 | -12% | 2.31 µM [falling, partial curve] | –
28 | CN(C)CCCN(C(=O)CCOc1ccccc1)c1nc2ccc(F)cc2s1 | -69.8% | 29.1 µM [falling, single point] | 29.1 µM [falling, single point]
29 | O=C(Nc1ccc(-c2nc3ccccc3o2)cc1)c1cccnc1 | -12% | 0.461 µM [falling, full curve, poor fit] | –
30 | COc1ccc(-n2c(Cc3cccn3C)nnc2SCC(=O)Nc2cccc(NC(C)=O)c2)cc1 | -10.4% | 32.6 µM [falling, single point] | –
31 | C=CCn1c(SCC(=O)Nc2sccc2C(N)=O)nc2ccc(Cl)cc2c1=O | -6.63% | 16.4 µM [falling, single point] | –
32 | C=C(C)CN1C(=O)C2(OCCO2)c2ccccc21 | 46.8% | – | 16.4 µM [rising, partial curve]
33 | CCOc1ccc(NC(=O)C2CCC(C)(C(=O)O)C2(C)C)cc1 (stereo unspecified) | 9.17% | 20.6 µM [rising, partial curve] | –
34 | CC(=O)Nc1cccc(C(=O)OCC(=O)NC(=O)Cc2ccccc2)c1 | 33.4% | 20.6 µM [rising, partial curve, poor fit] | 11.6 µM [rising, single point]
35 | O=C(O)c1ccc(NS(=O)(=O)c2cccc(C(=O)Nc3ccc(Br)cc3)c2)cc1 | 1.46% | 0.651 µM [rising, single point] | –
36 | NNC(=O)CS(=O)(=O)CS(=O)(=O)CC(=O)NN | 0.66% | 2.59 µM [falling, single point] | –
37 | COc1ccccc1NC(=O)C1CCN(S(=O)(=O)c2cccc3nonc23)CC1 | -26.2% | 29.1 µM [falling, single point] | 2.31 µM [falling, single point]
38 | Cc1cc(C(=O)Nc2ccc(S(=O)(=O)N3CCCC3)cc2)cs1 | -0.811% | 5.8 µM [rising, partial curve, poor fit] | –

Laid out differently: 2 of the compounds above.
O=C(O)c1ccc(NS(=O)(=O)c2cccc(C(=O)Nc3ccc(Br)cc3)c2)cc1
  cell number change: 1.46%
  AC50 [1]: 0.651 µM [rising, single point]
NNC(=O)CS(=O)(=O)CS(=O)(=O)CC(=O)NN
  cell number change: 0.66%
  AC50 [1]: 2.59 µM [falling, single point]

Next structures.

Row | SMILES | cell number change | AC50 [1] | AC50 [2]
39 | COc1ccccc1OCc1ccc(C(=O)Nc2ccccc2)cc1 | -18.7% | 0.82 µM [falling, full curve, poor fit] | –
40 | Cn1c2ccccc2c2ncn(Cc3ccco3)c(=O)c21 | -18.9% | – | –
41 | COc1ccc(N(C(=O)CNC(=O)c2ccco2)C(C(=O)NC2CCCCC2)c2cccnc2)cc1 (stereo unspecified) | 23.1% | 29.1 µM [falling, single point] | 2.31 µM [rising, full curve, poor fit]
42 | Cc1cc(C)nc(N/C(=N/S(=O)(=O)Cc2ccccc2)Nc2ccccc2)n1 | 21.7% | 0.326 µM [rising, full curve, poor fit] | –
43 | CCN(CC)CCN(C(=O)c1ccc2c(c1)OCCO2)c1nc2ccc(C)cc2s1 | 5.95% | 2.06 µM [rising, partial curve, poor fit] | –
44 | CCn1c2ccccc2c2cc(NC(=O)c3ccccc3[N+](=O)[O-])ccc21 | -21.2% | 1.16 µM [rising, full curve, poor fit] | –
45 | CCCn1ncc(CN2CCC(C(=O)Nc3cccc(-c4cccc(F)c4)c3)CC2)c1C | -36.6% | 11.6 µM [falling, single point] | 0.0366 µM [falling, full curve, poor fit]
46 | Cc1cccc(N2C(=O)C(Oc3ccc(Cl)cc3Cl)C2C=O)c1C (stereo unspecified) | -61.9% | 0.58 µM [falling, single point] | 32.6 µM [falling, partial curve, poor fit]
47 | CN(C)N1C(N)=C(C#N)C(c2ccsc2)C2=C1CC(C)(C)CC2=O (stereo unspecified) | – | 0.461 µM [falling, single point] | –
48 | COc1cc(S(=O)(=O)NCc2ccc3c(c2)OCO3)ccc1Cl | 11.7% | 0.00461 µM [falling, full curve, poor fit] | –
49 | CC1=C(C(=O)c2ccccc2)C(c2cccc([N+](=O)[O-])c2)NC(=S)N1 (stereo unspecified) | 0.271% | – | –
50 | O=C(COc1ncnc2ccccc12)Nc1cc([N+](=O)[O-])ccc1Cl | 18.5% | – | 0.82 µM [rising, single point]
51 | Cc1ccc(S(=O)(=O)N[C@@H](CO)C(=O)N[C@@H](Cc2ccc(O)cc2)C(=O)O)cc1 (Tos-Ser-Tyr-OH) | – | 0.0731 µM [rising, full curve] | –
52 | Cc1cccc(C(=O)N=c2sccn2C)c1[N+](=O)[O-] | 1.45% | 0.517 µM [rising, single point] | –
53 | CSc1ccccc1C(=O)Nc1ncc(C)s1 | 38.4% | 29.1 µM [rising, single point] | 29.1 µM [rising, single point]
54 | CC(=O)c1ccc2noc(-c3cccc(C)c3)c2c1 | 58.5% | – | 18.4 µM [rising, single point]
55 | C=CCNc1oc(-c2ccco2)nc1S(=O)(=O)c1ccccc1 | – | 29.1 µM [falling, single point] | 5.8 µM [falling, single point]
56 | Cc1cc(NC(=O)CSCc2ccccc2C)no1 | 7.63% | 3.66 µM [falling, partial curve] | 7.31 µM [falling, single point]
